From publication doi:10.1101/2020.04.02.021998

Biological target: Arabidopsis NOT4A E3 ubiquitin ligase (Arabidopsis thaliana)
Test: two-hybrid

binding: no binding
B1: PROTON GRADIENT REGULATED 3 (PGR3), pentatricopeptide repeat protein (protein, UniProt Q9SZ52 1-1112)
chain: MVALLCSASLCGDISVGDACLVSNIKAKCRDNLVTGGLKFHALKIGSRKKHWRRKSMRCSVVSMKSSDFSGSMIRKSSKPDLSSSEEVTRGLKSFPDTDSSFSYFKSVAGNLNLVHTTETCNYMLEALRVDGKLEEMAYVFDLMQKRIIKRDTNTYLTIFKSLSVKGGLKQAPYALRKMREFGFVLNAYSYNGLIHLLLKSRFCTEAMEVYRRMILEGFRPSLQTYSSLMVGLGKRRDIDSVMGLLKEMETLGLKPNVYTFTICIRVLGRAGKINEAYEILKRMDDEGCGPDVVTYTVLIDALCTARKLDCAKEVFEKMKTGRHKPDRVTYITLLDRFSDNRDLDSVKQFWSEMEKDGHVPDVVTFTILVDALCKAGNFGEAFDTLDVMRDQGILPNLHTYNTLICGLLRVHRLDDALELFGNMESLGVKPTAYTYIVFIDYYGKSGDSVSALETFEKMKTKGIAPNIVACNASLYSLAKAGRDREAKQIFYGLKDIGLVPDSVTYNMMMKCYSKVGEIDEAIKLLSEMMENGCEPDVIVVNSLINTLYKADRVDEAWKMFMRMKEMKLKPTVVTYNTLLAGLGKNGKIQEAIELFEGMVQKGCPPNTITFNTLFDCLCKNDEVTLALKMLFKMMDMGCVPDVFTYNTIIFGLVKNGQVKEAMCFFHQMKKLVYPDFVTLCTLLPGVVKASLIEDAYKIITNFLYNCADQPANLFWEDLIGSILAEAGIDNAVSFSERLVANGICRDGDSILVPIIRYSCKHNNVSGARTLFEKFTKDLGVQPKLPTYNLLIGGLLEADMIEIAQDVFLQVKSTGCIPDVATYNFLLDAYGKSGKIDELFELYKEMSTHECEANTITHNIVISGLVKAGNVDDALDLYYDLMSDRDFSPTACTYGPLIDGLSKSGRLYEAKQLFEGMLDYGCRPNCAIYNILINGFGKAGEADAACALFKRMVKEGVRPDLKTYSVLVDCLCMVGRVDEGLHYFKELKESGLNPDVVCYNLIINGLGKSHRLEEALVLFNEMKTSRGITPDLYTYNSLILNLGIAGMVEEAGKIYNEIQRAGLEPNVFTFNALIRGYSLSGKPEHAYAVYQTMVTGGFSPNTGTYEQLPNRA

No constants are given. Whether binding was seen depends on the method and setting.
